Article doi:10.1101/2022.05.16.492168

Protein sequences, listed by entry. Tags and fused reporters are not part of them. Lines headed by an entry give the natural chain unless they say otherwise; changes in a name come on top.
UniProt Q8L8T7: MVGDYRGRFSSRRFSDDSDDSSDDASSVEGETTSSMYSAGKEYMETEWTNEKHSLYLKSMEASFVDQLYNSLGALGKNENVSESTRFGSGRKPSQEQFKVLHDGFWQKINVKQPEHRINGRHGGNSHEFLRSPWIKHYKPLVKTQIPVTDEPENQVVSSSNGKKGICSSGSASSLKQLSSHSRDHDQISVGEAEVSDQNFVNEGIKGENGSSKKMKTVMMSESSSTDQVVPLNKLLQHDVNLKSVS
UniProt Q9M2S1: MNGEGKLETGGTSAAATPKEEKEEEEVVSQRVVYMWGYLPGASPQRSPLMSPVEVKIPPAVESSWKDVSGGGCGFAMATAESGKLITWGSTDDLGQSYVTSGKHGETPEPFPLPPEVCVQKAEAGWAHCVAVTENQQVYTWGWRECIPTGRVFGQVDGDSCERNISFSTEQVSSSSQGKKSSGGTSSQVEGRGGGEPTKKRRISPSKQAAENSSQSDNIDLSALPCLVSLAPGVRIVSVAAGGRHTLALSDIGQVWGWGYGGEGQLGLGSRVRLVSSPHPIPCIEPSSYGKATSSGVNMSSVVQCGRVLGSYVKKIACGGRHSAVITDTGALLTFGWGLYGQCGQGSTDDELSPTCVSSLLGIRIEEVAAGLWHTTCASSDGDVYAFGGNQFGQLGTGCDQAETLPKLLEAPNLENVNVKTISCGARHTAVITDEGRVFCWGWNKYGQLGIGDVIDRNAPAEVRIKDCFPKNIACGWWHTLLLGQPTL
UniProt P14713: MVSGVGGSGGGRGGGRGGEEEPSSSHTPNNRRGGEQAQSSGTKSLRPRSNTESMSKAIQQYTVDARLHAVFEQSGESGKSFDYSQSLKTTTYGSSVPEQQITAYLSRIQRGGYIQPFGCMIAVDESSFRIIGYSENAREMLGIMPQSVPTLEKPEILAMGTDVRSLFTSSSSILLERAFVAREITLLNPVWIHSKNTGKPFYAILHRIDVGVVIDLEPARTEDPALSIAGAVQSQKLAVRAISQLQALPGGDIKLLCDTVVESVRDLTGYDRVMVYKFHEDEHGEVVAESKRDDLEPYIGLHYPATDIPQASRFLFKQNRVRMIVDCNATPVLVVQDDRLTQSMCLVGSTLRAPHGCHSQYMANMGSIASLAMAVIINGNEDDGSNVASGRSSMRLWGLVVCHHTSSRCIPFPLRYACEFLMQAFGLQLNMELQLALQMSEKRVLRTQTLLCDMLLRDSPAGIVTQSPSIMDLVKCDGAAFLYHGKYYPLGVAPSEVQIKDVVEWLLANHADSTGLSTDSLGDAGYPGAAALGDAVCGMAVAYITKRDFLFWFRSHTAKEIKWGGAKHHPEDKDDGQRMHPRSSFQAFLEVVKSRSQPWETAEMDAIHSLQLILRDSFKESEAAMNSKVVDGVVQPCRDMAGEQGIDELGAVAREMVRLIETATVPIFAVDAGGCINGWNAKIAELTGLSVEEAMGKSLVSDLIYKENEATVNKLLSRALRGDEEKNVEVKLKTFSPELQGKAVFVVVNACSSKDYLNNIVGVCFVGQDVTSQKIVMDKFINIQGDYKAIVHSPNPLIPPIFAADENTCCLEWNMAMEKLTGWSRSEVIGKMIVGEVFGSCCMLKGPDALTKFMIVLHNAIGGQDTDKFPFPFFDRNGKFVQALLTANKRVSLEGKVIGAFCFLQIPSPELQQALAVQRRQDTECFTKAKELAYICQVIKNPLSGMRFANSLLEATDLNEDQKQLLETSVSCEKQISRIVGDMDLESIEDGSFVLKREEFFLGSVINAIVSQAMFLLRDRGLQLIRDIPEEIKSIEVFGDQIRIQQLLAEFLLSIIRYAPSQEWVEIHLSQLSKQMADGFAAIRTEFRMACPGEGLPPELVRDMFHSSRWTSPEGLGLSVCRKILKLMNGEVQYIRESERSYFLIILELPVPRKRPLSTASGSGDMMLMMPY

Tests used:
Assay in all cases: affinity purification with mass spectrometry
[1] = molecular target: T1, LNK1-HFC (NIGHT LIGHT INDUCIBLE AND CLOCK REGULATED 1 with 3x-FLAG-6x-His C-terminal tag) (Arabidopsis thaliana) (UniProt A8MQN2)
T1 sequence: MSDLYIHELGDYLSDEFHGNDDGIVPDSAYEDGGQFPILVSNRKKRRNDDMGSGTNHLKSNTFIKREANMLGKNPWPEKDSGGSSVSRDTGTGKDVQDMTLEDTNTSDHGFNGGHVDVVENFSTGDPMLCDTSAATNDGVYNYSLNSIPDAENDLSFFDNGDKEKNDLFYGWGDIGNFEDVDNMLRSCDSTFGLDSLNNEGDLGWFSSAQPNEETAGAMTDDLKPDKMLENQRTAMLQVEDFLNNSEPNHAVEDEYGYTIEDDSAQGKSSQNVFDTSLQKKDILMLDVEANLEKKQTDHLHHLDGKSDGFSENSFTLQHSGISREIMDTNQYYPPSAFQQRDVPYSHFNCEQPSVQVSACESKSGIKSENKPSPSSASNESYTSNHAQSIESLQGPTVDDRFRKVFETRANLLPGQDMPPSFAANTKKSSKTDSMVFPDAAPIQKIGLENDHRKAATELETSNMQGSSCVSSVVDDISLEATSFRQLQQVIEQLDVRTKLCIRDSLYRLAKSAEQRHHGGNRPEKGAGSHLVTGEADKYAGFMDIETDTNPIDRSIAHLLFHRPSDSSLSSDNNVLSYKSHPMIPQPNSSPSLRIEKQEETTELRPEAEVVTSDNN

[2] = molecular target: T2, LNK2-HFC (NIGHT LIGHT INDUCIBLE AND CLOCK REGULATED 2 with 3x-FLAG-6x-His C-terminal tag) (Arabidopsis thaliana) (UniProt F4JCX9)
T2 sequence: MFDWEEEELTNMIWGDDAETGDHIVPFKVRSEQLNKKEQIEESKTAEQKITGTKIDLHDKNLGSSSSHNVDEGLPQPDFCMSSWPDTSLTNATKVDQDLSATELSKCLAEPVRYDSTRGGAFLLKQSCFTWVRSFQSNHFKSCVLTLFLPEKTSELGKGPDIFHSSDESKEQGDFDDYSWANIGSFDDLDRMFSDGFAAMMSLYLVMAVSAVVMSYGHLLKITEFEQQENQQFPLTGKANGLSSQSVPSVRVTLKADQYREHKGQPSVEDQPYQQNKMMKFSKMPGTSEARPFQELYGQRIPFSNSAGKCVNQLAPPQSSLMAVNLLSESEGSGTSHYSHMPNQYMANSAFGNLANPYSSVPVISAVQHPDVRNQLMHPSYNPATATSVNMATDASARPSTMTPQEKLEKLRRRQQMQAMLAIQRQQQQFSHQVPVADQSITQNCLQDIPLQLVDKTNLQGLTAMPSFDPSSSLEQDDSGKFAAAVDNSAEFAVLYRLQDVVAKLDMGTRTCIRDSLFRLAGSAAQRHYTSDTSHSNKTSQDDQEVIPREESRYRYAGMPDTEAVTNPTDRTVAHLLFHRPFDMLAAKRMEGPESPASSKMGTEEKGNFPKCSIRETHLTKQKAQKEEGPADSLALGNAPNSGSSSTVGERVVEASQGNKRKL

[3] = molecular target: T3, RVE8-HFC (REVEILLE 8 with 3x-FLAG-6x-His C-terminal tag) (Arabidopsis thaliana) (UniProt Q8RWU3)
T3 sequence: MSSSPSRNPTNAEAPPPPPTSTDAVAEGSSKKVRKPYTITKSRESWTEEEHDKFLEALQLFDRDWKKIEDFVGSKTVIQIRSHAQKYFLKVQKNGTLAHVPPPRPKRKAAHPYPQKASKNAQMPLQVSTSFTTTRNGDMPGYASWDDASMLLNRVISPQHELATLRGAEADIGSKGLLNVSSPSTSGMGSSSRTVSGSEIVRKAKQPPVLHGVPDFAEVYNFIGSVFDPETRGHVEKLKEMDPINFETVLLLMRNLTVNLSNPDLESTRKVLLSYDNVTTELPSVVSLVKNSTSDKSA

[4] = molecular target: YFP-COR27 (COLD REGULATED GENE 27) (Arabidopsis thaliana) (UniProt Q8L8T7)
[5] = molecular target: T4, GFP-COR28 (COLD REGULATED GENE 28) (Arabidopsis thaliana) (UniProt Q8L983)
T4 sequence: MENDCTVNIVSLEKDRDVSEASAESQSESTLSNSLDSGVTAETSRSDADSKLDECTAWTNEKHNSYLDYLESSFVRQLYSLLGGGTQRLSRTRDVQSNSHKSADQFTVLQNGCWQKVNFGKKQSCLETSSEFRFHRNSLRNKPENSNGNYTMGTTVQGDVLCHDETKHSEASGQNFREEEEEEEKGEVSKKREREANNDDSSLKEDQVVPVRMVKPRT

Measured: binding

REGULATOR OF CHROMOSOME CONDENSATION 1-LIKE (RCC1L)
binds: [1] | [2] | [3]

TOLERANT TO CHILLING/FREEZING 1 (TCF1) (from UniProt Q9M2S1)
binds: [1] | [2] | [4] | [3]

PHYTOCHROME B (PHYB) (from UniProt P14713 1-1172)
binds: [5] | [4]

No constants are given. Whether binding was seen depends on the method and setting. Binding seen in cells or lysates may run through a third protein. A yes stands for co-enrichment or nearness to the bait. Other partners may have been found. For part of these data: Tags and fused reporters may be left off the sequences shown.
